# Measured values: US20240109896A1, “FGFR KINASE INHIBITOR AND USE THEREOF” (YA THERAPEUTICS INC, priority 2021, published 2024)
# Tests used:
# Format in all cases: cell-based
# [1] = system: human gastric cancer cells (SNU-16); assay: Proliferation inhibition of human gastric cancer cells SNU-16 (CellTiter-Glo); conditions: 72 h, SNU-16, 3 days
# Procedure: (§1) Example 58: Evaluation of Proliferative Inhibition Activity of Human Gastric Cancer Cells and Bladder Cancer Cells
# (§2) Using the CellTiter-Glo<TM>Live Cell Assay Kit, The inhibitory effect of the test compound on the proliferation of human gastric cancer cells (SNU-16) and FGFR3 high expression and FGFR3 fusion of FGFR3-TACC3 fused human bladder cancer cells (RT4) was determined. Among them, RT4 medium is added with fetal bovine serum and McCoy's 5A medium with a final concentration of 10%.
# (§3) Test steps: SNU-16 and RT4 cells that have reached 80% cell confluency were digested by trypsin, centrifuged and re-suspended for counting, and 3500 and 6000 cells/mL of SNU-16 and RT4 cell suspensions were prepared with medium, respectively. Add a 96-well cell culture plate (90 μL/well) and place in a cell culture incubator containing 5% CO2 at 37° C. […] Take out the 96-well cell culture plate and add CellTiterGlo (CTG, Chemiluminescent Cell Viability Assay) reagent (100 L/well. Mix and centrifuge, and then incubate for 10 min at room temperature. After gentle shaking, the absorbance at 450 nm wavelength was determined on the SpectraMax M5 Reader, and the absorbance at 650 nm was used as a reference (i.e., 450 nm absorbance −650 nm absorbance) to calculate the suppression.
# [2] = system: human bladder cancer cells (RT4); assay: Proliferation inhibition of human bladder cancer cells RT4 (CellTiter-Glo); conditions: RT-4, 72 h, RT4, 3 days
# Procedure: as §1, §2, §3
# Hep3B cells = assay: Human hepatoma cell Hep3B survival test (CellTiter-Glo); conditions: 72 h, read-out: inhibitory activity on Hep3B cell proliferation IC50 (nM)
# Procedure: Example 57: Human Hepatoma Cell Hep3B Survival Test
# The Hep3B cell line of human liver cancer is derived from ATCC. Cells are supplemented with McCoy's 5A medium and additionally added fetal bovine serum (IOFBS). Cells are kept in the medium at 37° C., humidity at 95%, and carbon dioxide at 500. Hep3B cells were seeded in 96-well plates at a density of 3500 cells per well with a cell suspension volume of 90 μL per well and cultured at 37° C. in a cell culture incubator containing 500 CO2. […] The 9 concentrations are: 1l μM, 2.5 μM, 0.625 μM, 0.156 μM, 0.039 μM, 0.0098 μM, 0.0024 μM, 0.0006 μM and 0.000015 μM, mix and centrifuge, add 1PL compound DMSO solution to the cell culture medium, and use 1M DMSO as a control, with three parallel side wells for each concentration of each compound. The cells were then placed in a 37° C. incubator and treated with compounds for 72 hours.
structure (smiles),measurement,setting,value
C=CC(=O)N1CC[C@H](n2nc(C#Cc3cc(OC)cc(OC)c3)c3c(N)ncnc32)C1 [Futibatinib],IC50,[1],0.022 nM
same,IC50,[2],12.6 nM
same,IC50,Hep3B cells,< 10 nM
